Experimental data taken from patent publication US20150030595A1.
No constants are given. Whether binding was seen depends on the method and setting. In cells and extracts the contact can be indirect. Some results given as binding are weak or reduced against the parent protein; the word gives no strength.

The chains behind the UniProt entries cited, without tags or fusion partners. Residues count along the entry.
UniProt P27040, residues 19-536: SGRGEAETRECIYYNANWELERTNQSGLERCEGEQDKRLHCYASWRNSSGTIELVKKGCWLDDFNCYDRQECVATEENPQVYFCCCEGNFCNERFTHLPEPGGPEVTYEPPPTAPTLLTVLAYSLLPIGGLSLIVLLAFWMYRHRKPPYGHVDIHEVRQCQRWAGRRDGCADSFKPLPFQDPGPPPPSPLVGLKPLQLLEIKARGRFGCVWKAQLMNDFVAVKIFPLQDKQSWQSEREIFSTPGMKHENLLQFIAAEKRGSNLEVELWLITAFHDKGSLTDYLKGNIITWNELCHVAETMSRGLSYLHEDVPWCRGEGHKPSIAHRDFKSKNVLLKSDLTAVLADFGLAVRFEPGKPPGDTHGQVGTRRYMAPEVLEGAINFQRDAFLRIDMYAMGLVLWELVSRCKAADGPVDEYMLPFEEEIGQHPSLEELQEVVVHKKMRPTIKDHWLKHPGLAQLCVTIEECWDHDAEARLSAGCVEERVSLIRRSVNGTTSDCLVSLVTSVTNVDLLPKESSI
UniProt O08689, residues 268-376: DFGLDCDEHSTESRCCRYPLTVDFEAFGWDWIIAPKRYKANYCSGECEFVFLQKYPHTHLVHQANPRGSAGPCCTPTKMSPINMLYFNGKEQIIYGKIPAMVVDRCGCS

How the values were obtained:
[1] = molecular target: T1, DLK1 in the lysate of the myoblast C2C12 cell line (UniProt Q09163); experiment: co-immunoprecipitation from C2C12 lysate (IP with the DLK1 antibody, blot for myostatin); a complex, not shown to be direct
T1 sequence (looked up): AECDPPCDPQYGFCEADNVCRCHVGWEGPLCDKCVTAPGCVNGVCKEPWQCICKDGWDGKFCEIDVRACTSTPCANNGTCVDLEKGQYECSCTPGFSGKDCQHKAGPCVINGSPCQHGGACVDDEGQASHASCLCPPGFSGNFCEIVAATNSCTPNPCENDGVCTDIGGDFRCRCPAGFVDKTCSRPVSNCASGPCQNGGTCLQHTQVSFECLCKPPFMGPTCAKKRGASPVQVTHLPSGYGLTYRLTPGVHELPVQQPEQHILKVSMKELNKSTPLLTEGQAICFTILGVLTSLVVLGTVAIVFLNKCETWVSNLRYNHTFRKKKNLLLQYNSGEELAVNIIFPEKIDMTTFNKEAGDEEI

[2] = molecular target: ACVR2B in the lysate of the myoblast C2C12 cell line (UniProt P27040); experiment: co-immunoprecipitation from C2C12 lysate (IP with the ACVR2B antibody, blot for myostatin); a complex, not shown to be direct

binding [1]: binds | binding [2]: binds
Substance: myostatin in the lysate of the myoblast C2C12 cell line (from UniProt O08689 268-376) (ligand)
